For this series, the system named is acute myocardial infarction. Description: Acute myocardial infarction in anesthetized dogs, oral (intragastric) administration. Type of series: in vivo. As for the experimental part: Drugs were administered intragastrically in equal volume at unequal concentration. […] After weighing, animals were anesthetized with 3% pentobarbital sodium iv at the dose of 30 mg/kg. Tracheal intubation was performed and anesthesia respirator (SC-M5, manufactured by Shanghai Medical Instrument Factory) was connected for mechanical ventilation (18 20 per min with tidal volume of 350 550 ml) after thoracotomy. Needle electrodes were punctured into four limbs and under chest skin for monitoring standard limb lead and V3 and ECG. Thoracotomy was performed at the third intercostal space of left sternal border and the fourth rib was removed for full exposure of heart. The pericardium was cut open to make a pericardium hammock. The coronary artery was dissociated from between the second and third branches of left anterior descending coronary artery, underneath which pass through silk threads for two-step ligation. On surface of heart were placed 30-point epicardial leads, to which four limbs were connected through needle-electrodes, which were in turn connected to Powerlab/8s (AD Instruments) with a multichannel switcher to record epicardial electrogram. Animal models of acute myocardial ischemia were prepared with the method of two-step ligation. […] NBT). While other part of myocardium was dyed to blue-black, the Infarct myocardium would not be colorated, which was then cut off and weighted. The results of experiment were shown in x±s and statistics were checked with t-test of non-matched pair. When p<0.05, it was judged that the differences were statistically significant.

Regarding “3,4′,5-trihydroxy-stilbene-3-β-D-glucoside [TSG]”, the Weight of heart (TSG 5 mg/kg oral) amounted to 79.7 ± 6.68 g, the Weight of heart (TSG 10 mg/kg oral) amounted to 68.8 ± 6.05 g and the Weight of heart (TSG 20 mg/kg oral) is 80.6 ± 13.3 g. Also, the “weight of left heart” value by setting is: (TSG 5 mg/kg oral) 55.1 ± 4.15 g; (TSG 10 mg/kg oral) 48.2 ± 4.84 g; (TSG 20 mg/kg oral) 56.2 ± 9.58 g.
